Literature values in US20160367620A1, “GLUTATHIONE” (priority 2015, published 2016).
For at least one compound, name, drawing or mass did not settle the structure.

What was measured:
[1] = cited from earlier work
topoisomerase II = conditions: cited from earlier work

| Structure (SMILES) | tissue injury and apoptosis [1] | topoisomerase II-mediated DNA cleavage (topoisomerase II) |
| --- | --- | --- |
| CCCCCC(O)/C=C/C=O (centres unmarked) [HNE, 4-hydroxy nonenal] | induced significant tissue injury and apoptosis |  |
| CCN(CC)C(=S)SSC(=S)N(CC)CC [disulfiram] |  | caused topoisomerase II-mediated DNA cleavage |
